Reference: paper PMC7329144
No constants are given. Whether binding was seen depends on the method and setting. For some of these results: Binding seen in cells or lysates may run through a third protein. Some binding calls cover weakened binding; strength is not graded here. For some of these results: Tags and fused reporters may be left off the sequences shown.

Amino acid sequences for entries named in this document (tags omitted).
UniProt P13607: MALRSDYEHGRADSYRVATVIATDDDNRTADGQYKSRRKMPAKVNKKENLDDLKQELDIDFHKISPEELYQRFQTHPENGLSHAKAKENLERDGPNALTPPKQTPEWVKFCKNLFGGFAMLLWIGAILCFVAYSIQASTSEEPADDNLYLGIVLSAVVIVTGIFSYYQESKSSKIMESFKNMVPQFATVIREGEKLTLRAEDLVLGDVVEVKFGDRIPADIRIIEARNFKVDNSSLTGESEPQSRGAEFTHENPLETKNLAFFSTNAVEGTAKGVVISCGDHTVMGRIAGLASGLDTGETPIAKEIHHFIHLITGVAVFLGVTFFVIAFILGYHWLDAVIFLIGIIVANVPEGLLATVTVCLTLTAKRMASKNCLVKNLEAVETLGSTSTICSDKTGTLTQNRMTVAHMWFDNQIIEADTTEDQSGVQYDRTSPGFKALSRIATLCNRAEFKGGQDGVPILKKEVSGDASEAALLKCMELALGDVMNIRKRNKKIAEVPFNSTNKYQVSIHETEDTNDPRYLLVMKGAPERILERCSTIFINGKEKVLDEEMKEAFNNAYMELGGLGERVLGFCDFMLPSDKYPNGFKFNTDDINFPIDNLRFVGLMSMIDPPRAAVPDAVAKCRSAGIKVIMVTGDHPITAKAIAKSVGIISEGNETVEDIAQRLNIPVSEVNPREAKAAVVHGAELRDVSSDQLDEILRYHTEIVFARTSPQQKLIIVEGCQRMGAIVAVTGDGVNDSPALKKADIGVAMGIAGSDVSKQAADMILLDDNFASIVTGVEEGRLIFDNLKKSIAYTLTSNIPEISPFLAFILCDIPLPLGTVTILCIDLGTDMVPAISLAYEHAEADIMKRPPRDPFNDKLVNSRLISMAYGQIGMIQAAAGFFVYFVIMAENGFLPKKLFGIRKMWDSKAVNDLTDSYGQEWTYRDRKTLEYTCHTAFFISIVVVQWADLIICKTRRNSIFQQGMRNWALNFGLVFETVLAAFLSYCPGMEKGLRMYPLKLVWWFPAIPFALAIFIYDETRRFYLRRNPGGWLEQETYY
UniProt Q9HCM4: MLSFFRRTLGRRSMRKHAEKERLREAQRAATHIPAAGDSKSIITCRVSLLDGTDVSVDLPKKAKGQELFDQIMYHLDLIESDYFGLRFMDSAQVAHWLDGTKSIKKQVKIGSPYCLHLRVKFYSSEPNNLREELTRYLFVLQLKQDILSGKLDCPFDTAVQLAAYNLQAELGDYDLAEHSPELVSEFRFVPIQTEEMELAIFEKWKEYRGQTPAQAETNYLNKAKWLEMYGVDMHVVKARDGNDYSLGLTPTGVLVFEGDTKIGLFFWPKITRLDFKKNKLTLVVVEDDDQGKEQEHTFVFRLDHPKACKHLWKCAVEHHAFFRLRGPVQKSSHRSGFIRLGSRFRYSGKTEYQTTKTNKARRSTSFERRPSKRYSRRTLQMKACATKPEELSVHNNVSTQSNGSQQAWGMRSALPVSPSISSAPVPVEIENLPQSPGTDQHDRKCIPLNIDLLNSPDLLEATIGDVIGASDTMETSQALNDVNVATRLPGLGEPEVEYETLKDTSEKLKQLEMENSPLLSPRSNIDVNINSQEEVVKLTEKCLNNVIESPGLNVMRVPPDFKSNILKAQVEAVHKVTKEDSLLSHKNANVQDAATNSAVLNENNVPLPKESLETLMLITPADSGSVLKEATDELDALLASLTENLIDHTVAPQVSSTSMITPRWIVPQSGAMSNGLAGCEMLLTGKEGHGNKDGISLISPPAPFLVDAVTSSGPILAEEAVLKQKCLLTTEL
UniProt Q9Y2J2: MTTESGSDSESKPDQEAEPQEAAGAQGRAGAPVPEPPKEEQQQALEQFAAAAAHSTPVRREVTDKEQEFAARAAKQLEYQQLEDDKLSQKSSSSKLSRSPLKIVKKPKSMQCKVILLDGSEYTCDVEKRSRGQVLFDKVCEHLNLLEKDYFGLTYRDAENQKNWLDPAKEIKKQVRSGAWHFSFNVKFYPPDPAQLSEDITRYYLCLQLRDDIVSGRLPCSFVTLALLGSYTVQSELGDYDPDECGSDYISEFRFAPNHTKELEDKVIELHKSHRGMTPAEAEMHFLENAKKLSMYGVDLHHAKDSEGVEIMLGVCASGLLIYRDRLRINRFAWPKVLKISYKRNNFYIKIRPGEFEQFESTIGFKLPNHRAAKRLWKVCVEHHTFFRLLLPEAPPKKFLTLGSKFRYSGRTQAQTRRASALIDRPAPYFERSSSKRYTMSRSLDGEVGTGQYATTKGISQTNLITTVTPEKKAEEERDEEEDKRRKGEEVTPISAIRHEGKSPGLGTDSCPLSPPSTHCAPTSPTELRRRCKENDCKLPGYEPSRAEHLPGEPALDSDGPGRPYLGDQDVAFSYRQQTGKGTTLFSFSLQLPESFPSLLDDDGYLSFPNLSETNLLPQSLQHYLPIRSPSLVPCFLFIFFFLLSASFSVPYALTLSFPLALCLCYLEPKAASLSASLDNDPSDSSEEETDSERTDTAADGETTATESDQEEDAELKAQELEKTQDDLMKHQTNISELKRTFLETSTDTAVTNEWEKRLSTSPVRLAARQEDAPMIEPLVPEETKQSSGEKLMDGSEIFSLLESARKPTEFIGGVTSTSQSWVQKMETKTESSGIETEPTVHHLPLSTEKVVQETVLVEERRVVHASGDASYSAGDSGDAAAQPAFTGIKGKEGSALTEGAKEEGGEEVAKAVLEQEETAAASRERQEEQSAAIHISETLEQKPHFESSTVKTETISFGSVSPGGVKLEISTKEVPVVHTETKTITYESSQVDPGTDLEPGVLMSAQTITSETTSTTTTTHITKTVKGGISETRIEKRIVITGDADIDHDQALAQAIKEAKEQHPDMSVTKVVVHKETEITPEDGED
UniProt Q9V8R9: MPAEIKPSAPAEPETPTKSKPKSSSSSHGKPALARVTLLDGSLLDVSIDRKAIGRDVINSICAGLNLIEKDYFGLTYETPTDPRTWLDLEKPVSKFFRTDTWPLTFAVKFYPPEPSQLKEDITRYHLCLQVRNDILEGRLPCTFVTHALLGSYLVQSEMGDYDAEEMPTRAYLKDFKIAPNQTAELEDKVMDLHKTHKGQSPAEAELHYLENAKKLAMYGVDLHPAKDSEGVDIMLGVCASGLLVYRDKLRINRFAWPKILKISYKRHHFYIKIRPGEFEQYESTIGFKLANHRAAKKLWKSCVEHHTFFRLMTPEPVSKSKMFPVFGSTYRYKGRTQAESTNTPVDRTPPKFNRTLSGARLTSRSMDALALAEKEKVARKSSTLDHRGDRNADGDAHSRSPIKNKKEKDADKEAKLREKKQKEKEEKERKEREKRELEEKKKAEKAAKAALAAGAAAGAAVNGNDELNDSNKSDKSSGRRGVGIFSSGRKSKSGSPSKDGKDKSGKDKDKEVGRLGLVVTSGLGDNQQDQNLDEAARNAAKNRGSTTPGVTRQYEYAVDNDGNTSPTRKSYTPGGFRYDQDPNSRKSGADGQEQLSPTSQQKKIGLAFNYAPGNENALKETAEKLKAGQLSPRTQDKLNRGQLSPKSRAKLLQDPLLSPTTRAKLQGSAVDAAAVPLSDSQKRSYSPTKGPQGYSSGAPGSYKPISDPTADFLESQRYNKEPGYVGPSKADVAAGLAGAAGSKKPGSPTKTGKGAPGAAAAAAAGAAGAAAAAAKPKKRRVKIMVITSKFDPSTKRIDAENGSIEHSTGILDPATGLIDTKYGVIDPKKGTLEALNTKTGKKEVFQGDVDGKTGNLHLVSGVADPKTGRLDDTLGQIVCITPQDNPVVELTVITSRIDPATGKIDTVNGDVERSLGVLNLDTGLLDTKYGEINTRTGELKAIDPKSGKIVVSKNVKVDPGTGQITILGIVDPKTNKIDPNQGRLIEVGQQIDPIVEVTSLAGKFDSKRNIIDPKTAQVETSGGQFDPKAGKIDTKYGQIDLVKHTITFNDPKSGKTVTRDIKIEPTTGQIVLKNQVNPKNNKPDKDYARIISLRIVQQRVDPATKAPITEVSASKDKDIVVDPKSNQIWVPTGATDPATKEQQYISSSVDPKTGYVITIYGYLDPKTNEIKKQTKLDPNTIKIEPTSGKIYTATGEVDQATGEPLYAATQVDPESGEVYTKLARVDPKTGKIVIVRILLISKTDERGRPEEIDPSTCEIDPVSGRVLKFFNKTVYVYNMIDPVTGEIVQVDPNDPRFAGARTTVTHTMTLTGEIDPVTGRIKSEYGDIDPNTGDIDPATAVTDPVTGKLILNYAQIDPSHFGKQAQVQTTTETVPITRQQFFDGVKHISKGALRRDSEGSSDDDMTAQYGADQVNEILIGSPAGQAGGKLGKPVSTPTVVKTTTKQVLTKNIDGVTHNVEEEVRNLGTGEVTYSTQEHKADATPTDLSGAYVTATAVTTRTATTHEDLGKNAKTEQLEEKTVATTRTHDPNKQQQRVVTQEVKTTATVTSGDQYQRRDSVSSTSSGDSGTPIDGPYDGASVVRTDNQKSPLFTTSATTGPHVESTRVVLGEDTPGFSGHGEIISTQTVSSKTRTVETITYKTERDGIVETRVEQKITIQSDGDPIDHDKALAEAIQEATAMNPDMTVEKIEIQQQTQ

Experiments:
[1] = molecular target: T1, endogenous Tctp (Drosophila (endogenous in embryos)) (UniProt Q9VGS2); experiment: co-IP; endogenous proteins from wild-type embryo extracts; rabbit anti-Tctp on protein G agarose beads, 4°C overnight
T1 sequence: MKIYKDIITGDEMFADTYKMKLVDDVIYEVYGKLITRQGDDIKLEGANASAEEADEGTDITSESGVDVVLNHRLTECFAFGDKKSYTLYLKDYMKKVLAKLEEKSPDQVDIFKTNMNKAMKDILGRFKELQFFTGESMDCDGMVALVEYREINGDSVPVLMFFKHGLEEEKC

Flag-ATPα (Drosophila) = Flag-ATPα (Drosophila) (UniProt P13607); experiment: co-IP; S2 cells transiently transfected with Flag- and Myc-tagged constructs, lysed 24 h after transfection; lysis buffer 20 mM HEPES pH 7.5, 100 mM KCl, 2.5 mM EDTA, 5% glycerol, 0.05% Triton X-100; immunoprecipitation at 4°C overnight
[2] = molecular target: His-GST-EPB41L5 (human Yrt homolog) (human) (UniProt Q9HCM4); experiment: pull-down; GST-tagged proteins as baits, MBP-tagged Tctp as prey; 10 μg/mL of each; PDB buffer (20 mM Tris-HCl pH 7.5, 150 mM NaCl, 0.5 mM EDTA, 10% glycerol, 0.1% Triton X-100, 1 mM DTT); both purified
[3] = molecular target: His-GST-EPB41L3 (human Cora homolog) (human) (UniProt Q9Y2J2); experiment: as above

endogenous Cora isoform of about 200 kDa (from UniProt Q9V8R9 1-1698)
binding [1]: binds

B1: Myc-Tctp (protein, UniProt Q9VGS2 1-172)
chain: MKIYKDIITGDEMFADTYKMKLVDDVIYEVYGKLITRQGDDIKLEGANASAEEADEGTDITSESGVDVVLNHRLTECFAFGDKKSYTLYLKDYMKKVLAKLEEKSPDQVDIFKTNMNKAMKDILGRFKELQFFTGESMDCDGMVALVEYREINGDSVPVLMFFKHGLEEEKC
binding (Flag-ATPα (Drosophila)): binds

B2: human TCTP (protein, UniProt P13693 1-172)
chain: MIIYRDLISHDEMFSDIYKIREIADGLCLEVEGKMVSRTEGNIDDSLIGGNASAEGPEGEGTESTVITGVDIVMNHHLQETSFTKEAYKKYIKDYMKSIKGKLEEQRPERVKPFMTGAAEQIKHILANFKNYQFFIGENMNPDGMVALLDYREDGVTPYMIFFKDGLEMEKC
binding [2]: binds
binding [3]: binds weakly
